Assay results from PubChem BioAssay AID328 (DTP/NCI, 2004).
The list shows only some results of the screen, not a fair sample: it gathers tests that were run many times, whatever their T/C, doses with no T/C, and many T/C values between a quarter and a half above the control. Other doses and runs of a compound stand elsewhere. T/C is the treated group as % of the vehicle group. Some doses have a count of surviving animals in place of a T/C: the source files T/C as zero there, which appears to mark a toxic dose or a test without result, not a measured value. Some doses without a T/C left all or most animals alive at the check, yet need not have been tolerated: survival well below the control is almost never listed, so the zero probably covers shortened survival too. Counts of survivors are from the toxicity check (mostly the fifth day) where no day follows; animals may have died later. Schedule codes are those of the source, taken here to give the interval after Q, in days (D) or hours (H), and the number of doses after X. Some doses were run more than once; the results are listed from low to high. Some schedule codes hold Z or #, which are not explained here. Some structures stand for samples that the source files as different forms (salt, stereo form or complex); doses refer to the form tested. Signs of the kind (2×) count equal records among those shown. Where survival is the endpoint, the PubChem record calls one and a half times the control and up active, and a quarter to a half above the control has no call in these data; cut-offs in other NCI protocols can differ. Some T/C values carry the count of animals alive at the toxicity check (mostly the fifth day); without a count, all were alive then.

Tested on: BDF1 mice, P388 leukemia ip, median survival T/C
Assay: NCI In Vivo Anticancer Drug Screen. Data for tumor model P388 Leukemia (intraperitoneal) in B6D2F1 (BDF1) mice
Conditions: T/C endpoint: median survival time, higher T/C = longer survival
In short: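 Read-out is survival of treated animals expressed relative to the vehicle group, as a T/C ratio.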

[1] = dose: 100.0 mg/kg/injection, schedule: Q01DX009 (ip), vehicle: saline with Tween-80
[2] = dose: 6.25 mg/kg/injection, schedule: Q01DX009 (ip), vehicle: Klucel (hydroxypropylcellulose) (HPC)
[3] = dose: 12.5 mg/kg/injection, schedule: Q01DX009 (ip), vehicle: Klucel (hydroxypropylcellulose) (HPC)
[4] = dose: 200.0 mg/kg/injection, schedule: Q01DX009 (ip), vehicle: saline with Tween-80
[5] = dose: 18.0 mg/kg/injection, schedule: Q04DX003 (ip), vehicle: Klucel (hydroxypropylcellulose) (HPC)

CS(=O)(=O)CCN(N=O)C(=N)N[N+](=O)[O-]
T/C (dose: 12.0 mg/kg/injection, schedule: Q04DX003 (ip), vehicle: saline with Tween-80): 136 % of control
T/C (dose: 66.0 mg/kg/injection, schedule: Q04DX003 (ip), vehicle: saline with Tween-80): 137 % of control
T/C (dose: 100.0 mg/kg/injection, schedule: Q04DX003 (ip), vehicle: saline with Tween-80): 145 % of control

C=CC12COC(=O)C(=C)C1C(O)C(C(=C)C(=O)OC)C(O)C2 (centres undefined)
T/C (dose: 4.0 mg/kg/injection, schedule: Q01DX010 (ip), vehicle: steroid suspending solution): 140 % of control
T/C (dose: 6.0 mg/kg/injection, schedule: Q01DX010 (ip), vehicle: steroid suspending solution): 131 % of control [5 of 6 alive]
T/C (dose: 8.0 mg/kg/injection, schedule: Q01DX010 (ip), vehicle: steroid suspending solution): 131 % of control

NC(N)=N/N=C(/c1ccccc1)c1ccc(F)cc1
T/C (dose: 2.5 mg/kg/injection, schedule: Q01DX009 (ip), vehicle: Klucel (hydroxypropylcellulose) (HPC)): 135 % of control
survivor count (dose: 40.0 mg/kg/injection, schedule: Q01DX009 (ip), vehicle: Klucel (hydroxypropylcellulose) (HPC)): 0 of 6 and 6 of 6
survivor count (dose: 40.0 mg/kg/injection, schedule: Q01DX009 (ip), vehicle: saline): 5 of 6
survivor count (dose: 80.0 mg/kg/injection, schedule: Q01DX009 (ip), vehicle: Klucel (hydroxypropylcellulose) (HPC)): 0 of 6
survivor count (dose: 160.0 mg/kg/injection, schedule: Q01DX009 (ip), vehicle: Klucel (hydroxypropylcellulose) (HPC)): 0 of 6

O=Cc1ccc(C(Cl)(Cl)Cl)cc1
T/C [1]: 125 % of control
T/C (dose: 264.0 mg/kg/injection, schedule: Q04DX003 (ip), vehicle: saline with Tween-80): 136 % of control
survivor count (dose: 400.0 mg/kg/injection, schedule: Q01DX009 (ip), vehicle: saline with Tween-80): 3 of 6
survivor count (dose: 600.0 mg/kg/injection, schedule: Q04DX003 (ip), vehicle: saline with Tween-80): 6 of 6

CCOP(=O)(OCC)SCSC(C)C
survivor count (dose: 0.39 mg/kg/injection, schedule: Q01DX009 (ip), vehicle: Klucel (hydroxypropylcellulose) (HPC)): 0 of 6
survivor count (dose: 0.78 mg/kg/injection, schedule: Q01DX009 (ip), vehicle: Klucel (hydroxypropylcellulose) (HPC)): 0 of 6
survivor count [2]: 2 of 6
survivor count [3]: 0 of 6

CCN1CCC(O)(c2ccc(Br)cc2)C1 (centres undefined)
survivor count (dose: 200.0 mg/kg/injection, schedule: Q01DX009 (ip), vehicle: saline): 3 of 6

CCCCCCC(N)C(C)O (centres undefined)
survivor count [1]: 5 of 6
survivor count [4]: 0 of 6

O=C(CCC(=O)[O][Sn]([c]1ccccc1)([c]1ccccc1)[c]1ccccc1)[O][Sn]([c]1ccccc1)([c]1ccccc1)[c]1ccccc1
survivor count [2]: 2 of 6
survivor count [3]: 0 of 6
T/C [5]: 127 % of control
survivor count [5]: 5 of 6
survivor count (dose: 28.0 mg/kg/injection, schedule: Q04DX003 (ip), vehicle: Klucel (hydroxypropylcellulose) (HPC)): 3 of 6
survivor count (dose: 40.0 mg/kg/injection, schedule: Q04DX003 (ip), vehicle: Klucel (hydroxypropylcellulose) (HPC)): 3 of 6

C1=C(c2ccccc2)OC(c2ccccc2)=C[P+]1(c1ccccc1)c1ccccc1
survivor count (dose: 50.0 mg/kg/injection, schedule: Q01DX005 (ip), vehicle: saline with Tween-80): 0 of 5
survivor count (dose: 100.0 mg/kg/injection, schedule: Q01DX005 (ip), vehicle: saline with Tween-80): 0 of 5
survivor count (dose: 200.0 mg/kg/injection, schedule: Q01DX005 (ip), vehicle: saline with Tween-80): 0 of 5

Nc1cc[c]([Hg][Cl])cc1
survivor count (dose: 12.0 mg/kg/injection, schedule: Q01DX001 (ip), vehicle: Klucel (hydroxypropylcellulose) (HPC)): 0 of 6
survivor count (dose: 25.0 mg/kg/injection, schedule: Q01DX001 (ip), vehicle: Klucel (hydroxypropylcellulose) (HPC)): 1 of 6 and 3 of 6
survivor count (dose: 50.0 mg/kg/injection, schedule: Q01DX001 (ip), vehicle: Klucel (hydroxypropylcellulose) (HPC)): 0 of 6
survivor count (dose: 100.0 mg/kg/injection, schedule: Q01DX001 (ip), vehicle: Klucel (hydroxypropylcellulose) (HPC)): 0 of 6
survivor count (dose: 200.0 mg/kg/injection, schedule: Q01DX001 (ip), vehicle: Klucel (hydroxypropylcellulose) (HPC)): 0 of 6
survivor count (dose: 400.0 mg/kg/injection, schedule: Q01DX001 (ip), vehicle: Klucel (hydroxypropylcellulose) (HPC)): 0 of 6

O=C(Nc1cccc(Cl)c1)c1cc(N=Nc2ccc([N+](=O)[O-])cc2Cl)ccc1O
T/C (dose: 90.0 mg/kg/injection, schedule: Q04DX003 (ip), vehicle: Klucel (hydroxypropylcellulose) (HPC)): 126 % of control
T/C (dose: 100.0 mg/kg/injection, schedule: Q01DX009 (ip), vehicle: Klucel (hydroxypropylcellulose) (HPC)): 125 % of control
T/C (dose: 100.0 mg/kg/injection, schedule: Q04DX003 (ip), vehicle: Klucel (hydroxypropylcellulose) (HPC)): 138 % of control
survivor count (dose: 200.0 mg/kg/injection, schedule: Q01DX009 (ip), vehicle: Klucel (hydroxypropylcellulose) (HPC)): 2 of 6
T/C (dose: 200.0 mg/kg/injection, schedule: Q04DX003 (ip), vehicle: Klucel (hydroxypropylcellulose) (HPC)): 126 % of control
survivor count (dose: 300.0 mg/kg/injection, schedule: Q04DX003 (ip), vehicle: Klucel (hydroxypropylcellulose) (HPC)): 2 of 6

CO[C@H]1/C=C/O[C@@]2(C)Oc3c(C)c(O)c4c(O)c(c(/C=N/N5C(C)CN(Cc6ccccc6)CC5C)c(O)c4c3C2=O)NC(=O)/C(C)=C\C=C\[C@H](C)[C@H](O)[C@@H](C)[C@@H](O)[C@@H](C)[C@H](OC(C)=O)[C@@H]1C (some centres undefined)
survivor count (dose: 6.25 mg/kg/injection, schedule: Q01DX005 (ip), vehicle: other): 8 of 8
survivor count (dose: 25.0 mg/kg/injection, schedule: Q02DX Z (oral), vehicle: Klucel (hydroxypropylcellulose) (HPC)): 12 of 12
survivor count (dose: 200.0 mg/kg/injection, schedule: Q01DX005 (oral), vehicle: other): 5 of 8
survivor count (dose: 800.0 mg/kg/injection, schedule: Q01DX005 (ip), vehicle: Klucel (hydroxypropylcellulose) (HPC)): 5 of 8
survivor count (dose: 800.0 mg/kg/injection, schedule: Q02DX Z (oral), vehicle: Klucel (hydroxypropylcellulose) (HPC)): 12 of 12
survivor count (dose: 1600.0 mg/kg/injection, schedule: Q02DX Z (oral), vehicle: Klucel (hydroxypropylcellulose) (HPC)): 11 of 12

CCCCCCCCCCCCCS
T/C (dose: 66.0 mg/kg/injection, schedule: Q01DX009 (ip), vehicle: saline with Tween-80): 127 % of control
survivor count [1]: 3 of 6
survivor count (dose: 150.0 mg/kg/injection, schedule: Q01DX009 (ip), vehicle: saline with Tween-80): 3 of 6

C=C(C)C(=O)OC1CC2(C)OC2CC(OC(C)=O)/C(C)=C/C2OC(=O)C(=C)C21 (centres undefined)
T/C (dose: 22.5 mg/kg/injection, schedule: Q01DX009 (ip), vehicle: saline): 131 % of control
T/C (dose: 45.0 mg/kg/injection, schedule: Q01DX009 (ip), vehicle: saline): 131 % of control
survivor count (dose: 90.0 mg/kg/injection, schedule: Q01DX009 (ip), vehicle: saline): 1 of 4

COc1ccc(NC(=O)N(CCCl)N=O)cc1OC
T/C (dose: 1.0 mg/kg/injection, schedule: Q04DX003 (ip), vehicle: saline with Tween-80): 137 % of control

CS(=O)(=O)OCCC(=O)N1CCN(C(=O)CCOS(C)(=O)=O)CC1
T/C (dose: 180.0 mg/kg/injection, schedule: Q01DX010 (ip), vehicle: saline): 131 % of control

O=C1c2ccccc2C(=O)c2c(NCCNCCO)ccc(NCCNCCO)c21
survivor count (dose: 16.0 mg/kg/injection, schedule: Q01DX009 (ip), vehicle: water): 6 of 6
T/C (dose: 25.0 mg/kg/injection, schedule: Q01DX009 (ip), vehicle: saline): 126 % of control
survivor count (dose: 32.0 mg/kg/injection, schedule: Q01DX009 (ip), vehicle: water): 5 of 6
survivor count (dose: 50.0 mg/kg/injection, schedule: Q01DX009 (ip), vehicle: saline): 10 of 10 (2×)
survivor count (dose: 64.0 mg/kg/injection, schedule: Q01DX009 (ip), vehicle: water): 5 of 6
survivor count (dose: 128.0 mg/kg/injection, schedule: Q04DX003 (ip), vehicle: saline with Tween-80): 5 of 6

O=C1CSC(C23CC4CC(CC(C4)C2)C3)N1c1nccs1 (centres undefined)
survivor count [4]: 6 of 6
